Laboratory results published in publication PMC9681113.
Like-named read-outs stand apart in the source and are kept apart here. These are yes or no findings as the source states them, for the method shown. In cells and extracts the contact can be indirect. These calls come from enrichment with a bait or labelling near it, and not all partners need be listed. For part of these data: A no says only that the protein was not detected with the bait. Where a sequence is shown, tags or fusion partners need not be part of it.

Sequences of proteins named here, by UniProt entry; tags and fusion partners are left off.
UniProt Q13425: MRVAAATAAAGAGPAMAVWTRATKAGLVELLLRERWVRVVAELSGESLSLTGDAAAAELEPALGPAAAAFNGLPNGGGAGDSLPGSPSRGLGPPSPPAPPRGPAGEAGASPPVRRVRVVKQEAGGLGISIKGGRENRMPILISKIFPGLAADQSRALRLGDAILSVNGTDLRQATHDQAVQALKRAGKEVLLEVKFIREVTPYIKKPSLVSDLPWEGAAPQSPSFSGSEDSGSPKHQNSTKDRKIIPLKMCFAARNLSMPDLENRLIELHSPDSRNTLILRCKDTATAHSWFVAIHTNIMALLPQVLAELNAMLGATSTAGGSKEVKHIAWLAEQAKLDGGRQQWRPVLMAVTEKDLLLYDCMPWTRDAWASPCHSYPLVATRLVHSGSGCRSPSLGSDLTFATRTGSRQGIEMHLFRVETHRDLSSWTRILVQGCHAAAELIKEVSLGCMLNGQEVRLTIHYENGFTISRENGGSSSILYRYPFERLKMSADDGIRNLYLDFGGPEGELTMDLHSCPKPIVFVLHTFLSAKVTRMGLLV
UniProt Q9Y605: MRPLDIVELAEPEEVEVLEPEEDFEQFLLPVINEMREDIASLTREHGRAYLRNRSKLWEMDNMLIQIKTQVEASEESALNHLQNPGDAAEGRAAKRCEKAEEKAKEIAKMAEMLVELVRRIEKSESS
UniProt O00311: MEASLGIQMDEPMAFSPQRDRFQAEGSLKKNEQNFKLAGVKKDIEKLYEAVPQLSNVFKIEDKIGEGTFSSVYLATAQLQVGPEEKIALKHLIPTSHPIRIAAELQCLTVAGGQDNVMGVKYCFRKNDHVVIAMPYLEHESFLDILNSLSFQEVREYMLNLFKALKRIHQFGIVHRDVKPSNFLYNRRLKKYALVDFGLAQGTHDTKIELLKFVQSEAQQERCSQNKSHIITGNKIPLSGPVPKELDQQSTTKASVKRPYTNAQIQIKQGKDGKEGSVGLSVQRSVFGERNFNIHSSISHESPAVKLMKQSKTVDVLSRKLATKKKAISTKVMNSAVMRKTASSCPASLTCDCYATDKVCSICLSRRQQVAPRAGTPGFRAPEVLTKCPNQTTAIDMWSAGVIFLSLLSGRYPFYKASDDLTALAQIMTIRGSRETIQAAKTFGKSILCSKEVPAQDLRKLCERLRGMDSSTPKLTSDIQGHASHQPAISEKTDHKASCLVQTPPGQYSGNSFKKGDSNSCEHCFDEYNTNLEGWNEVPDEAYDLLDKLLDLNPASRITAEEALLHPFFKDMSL
UniProt O60610: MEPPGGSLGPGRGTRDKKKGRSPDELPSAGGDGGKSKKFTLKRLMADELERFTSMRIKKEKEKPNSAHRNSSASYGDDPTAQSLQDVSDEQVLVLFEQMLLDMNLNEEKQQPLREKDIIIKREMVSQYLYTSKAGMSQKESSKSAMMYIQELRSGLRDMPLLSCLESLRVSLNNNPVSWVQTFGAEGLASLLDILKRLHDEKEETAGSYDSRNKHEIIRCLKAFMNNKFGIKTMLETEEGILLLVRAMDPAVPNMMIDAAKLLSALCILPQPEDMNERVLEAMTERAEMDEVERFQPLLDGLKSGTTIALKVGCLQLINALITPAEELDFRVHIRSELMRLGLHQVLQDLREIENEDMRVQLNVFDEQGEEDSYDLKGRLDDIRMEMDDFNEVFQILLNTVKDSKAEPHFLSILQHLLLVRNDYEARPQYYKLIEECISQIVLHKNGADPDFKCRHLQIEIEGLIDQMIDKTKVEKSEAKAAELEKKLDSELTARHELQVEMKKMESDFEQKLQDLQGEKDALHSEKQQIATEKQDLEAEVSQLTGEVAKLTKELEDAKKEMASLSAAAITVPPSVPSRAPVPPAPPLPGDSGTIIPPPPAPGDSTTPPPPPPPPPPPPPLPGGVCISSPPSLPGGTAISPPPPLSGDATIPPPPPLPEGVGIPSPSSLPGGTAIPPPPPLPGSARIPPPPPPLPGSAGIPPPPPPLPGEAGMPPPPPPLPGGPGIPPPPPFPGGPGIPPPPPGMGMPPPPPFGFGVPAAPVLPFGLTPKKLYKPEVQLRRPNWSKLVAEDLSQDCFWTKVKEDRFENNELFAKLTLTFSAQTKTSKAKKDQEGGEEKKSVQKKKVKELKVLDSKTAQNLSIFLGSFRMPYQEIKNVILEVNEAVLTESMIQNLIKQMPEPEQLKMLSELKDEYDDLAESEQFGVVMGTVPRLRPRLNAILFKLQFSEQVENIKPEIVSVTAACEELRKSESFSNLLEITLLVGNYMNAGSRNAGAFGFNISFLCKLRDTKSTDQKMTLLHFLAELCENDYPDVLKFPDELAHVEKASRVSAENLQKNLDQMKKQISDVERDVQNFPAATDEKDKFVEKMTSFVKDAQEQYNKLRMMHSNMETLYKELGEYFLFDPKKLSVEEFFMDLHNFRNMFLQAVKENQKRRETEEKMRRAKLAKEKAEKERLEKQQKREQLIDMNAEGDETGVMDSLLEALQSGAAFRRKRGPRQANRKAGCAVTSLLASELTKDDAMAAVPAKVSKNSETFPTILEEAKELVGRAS
UniProt Q10471: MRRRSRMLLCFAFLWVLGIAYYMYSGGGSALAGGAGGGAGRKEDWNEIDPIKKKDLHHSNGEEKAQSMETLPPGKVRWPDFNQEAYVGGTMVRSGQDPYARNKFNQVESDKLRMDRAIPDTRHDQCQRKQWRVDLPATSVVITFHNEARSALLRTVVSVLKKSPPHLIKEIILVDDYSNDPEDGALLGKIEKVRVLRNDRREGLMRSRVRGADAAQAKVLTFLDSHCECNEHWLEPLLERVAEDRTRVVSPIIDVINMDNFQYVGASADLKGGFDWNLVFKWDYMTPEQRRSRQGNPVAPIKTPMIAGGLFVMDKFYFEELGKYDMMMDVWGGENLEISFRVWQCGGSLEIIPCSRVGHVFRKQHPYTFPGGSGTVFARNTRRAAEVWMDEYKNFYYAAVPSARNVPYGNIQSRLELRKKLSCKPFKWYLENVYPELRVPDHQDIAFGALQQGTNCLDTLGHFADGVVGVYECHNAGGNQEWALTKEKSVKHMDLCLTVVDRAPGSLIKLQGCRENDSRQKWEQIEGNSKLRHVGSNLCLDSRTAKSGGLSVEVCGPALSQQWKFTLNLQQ
UniProt P13984: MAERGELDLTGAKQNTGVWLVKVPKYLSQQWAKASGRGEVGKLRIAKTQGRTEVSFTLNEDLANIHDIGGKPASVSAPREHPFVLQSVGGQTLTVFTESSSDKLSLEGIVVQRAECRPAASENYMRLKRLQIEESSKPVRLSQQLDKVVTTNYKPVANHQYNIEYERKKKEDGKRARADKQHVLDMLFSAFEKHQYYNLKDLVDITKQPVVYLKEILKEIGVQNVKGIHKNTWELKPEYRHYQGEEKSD
UniProt Q13098: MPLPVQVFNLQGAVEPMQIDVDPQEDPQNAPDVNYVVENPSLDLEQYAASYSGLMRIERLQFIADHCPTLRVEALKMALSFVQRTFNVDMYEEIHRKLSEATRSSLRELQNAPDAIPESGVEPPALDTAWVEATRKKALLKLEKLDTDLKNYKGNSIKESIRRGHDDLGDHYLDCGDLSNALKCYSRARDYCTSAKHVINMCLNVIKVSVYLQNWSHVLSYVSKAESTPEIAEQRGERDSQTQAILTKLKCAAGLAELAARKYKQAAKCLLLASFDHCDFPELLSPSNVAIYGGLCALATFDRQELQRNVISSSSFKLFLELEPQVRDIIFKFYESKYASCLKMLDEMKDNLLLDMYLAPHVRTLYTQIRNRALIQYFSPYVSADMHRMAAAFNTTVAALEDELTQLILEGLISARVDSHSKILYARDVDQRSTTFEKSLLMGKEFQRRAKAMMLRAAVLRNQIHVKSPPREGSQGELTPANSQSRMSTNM
UniProt Q09161: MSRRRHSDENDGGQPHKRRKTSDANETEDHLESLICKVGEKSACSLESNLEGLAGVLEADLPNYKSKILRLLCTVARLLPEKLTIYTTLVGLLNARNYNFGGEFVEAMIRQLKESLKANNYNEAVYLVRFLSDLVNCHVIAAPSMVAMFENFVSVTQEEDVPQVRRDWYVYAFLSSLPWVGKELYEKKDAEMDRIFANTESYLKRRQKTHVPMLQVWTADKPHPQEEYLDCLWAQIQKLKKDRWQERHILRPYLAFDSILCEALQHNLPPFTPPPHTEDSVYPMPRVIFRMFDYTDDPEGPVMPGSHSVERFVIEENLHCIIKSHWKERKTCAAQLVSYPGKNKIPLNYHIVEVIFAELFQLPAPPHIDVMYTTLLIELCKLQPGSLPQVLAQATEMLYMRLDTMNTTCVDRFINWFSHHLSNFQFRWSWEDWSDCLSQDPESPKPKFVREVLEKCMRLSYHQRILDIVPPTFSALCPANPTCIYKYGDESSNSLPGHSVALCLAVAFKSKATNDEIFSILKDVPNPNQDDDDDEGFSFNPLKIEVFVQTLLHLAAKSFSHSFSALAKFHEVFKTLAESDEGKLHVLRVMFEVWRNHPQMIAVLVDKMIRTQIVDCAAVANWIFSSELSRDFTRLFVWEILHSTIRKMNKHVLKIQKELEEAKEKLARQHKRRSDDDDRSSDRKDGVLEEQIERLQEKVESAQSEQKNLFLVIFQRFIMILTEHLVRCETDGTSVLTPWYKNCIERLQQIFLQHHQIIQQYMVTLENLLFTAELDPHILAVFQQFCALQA
UniProt Q8IWR0: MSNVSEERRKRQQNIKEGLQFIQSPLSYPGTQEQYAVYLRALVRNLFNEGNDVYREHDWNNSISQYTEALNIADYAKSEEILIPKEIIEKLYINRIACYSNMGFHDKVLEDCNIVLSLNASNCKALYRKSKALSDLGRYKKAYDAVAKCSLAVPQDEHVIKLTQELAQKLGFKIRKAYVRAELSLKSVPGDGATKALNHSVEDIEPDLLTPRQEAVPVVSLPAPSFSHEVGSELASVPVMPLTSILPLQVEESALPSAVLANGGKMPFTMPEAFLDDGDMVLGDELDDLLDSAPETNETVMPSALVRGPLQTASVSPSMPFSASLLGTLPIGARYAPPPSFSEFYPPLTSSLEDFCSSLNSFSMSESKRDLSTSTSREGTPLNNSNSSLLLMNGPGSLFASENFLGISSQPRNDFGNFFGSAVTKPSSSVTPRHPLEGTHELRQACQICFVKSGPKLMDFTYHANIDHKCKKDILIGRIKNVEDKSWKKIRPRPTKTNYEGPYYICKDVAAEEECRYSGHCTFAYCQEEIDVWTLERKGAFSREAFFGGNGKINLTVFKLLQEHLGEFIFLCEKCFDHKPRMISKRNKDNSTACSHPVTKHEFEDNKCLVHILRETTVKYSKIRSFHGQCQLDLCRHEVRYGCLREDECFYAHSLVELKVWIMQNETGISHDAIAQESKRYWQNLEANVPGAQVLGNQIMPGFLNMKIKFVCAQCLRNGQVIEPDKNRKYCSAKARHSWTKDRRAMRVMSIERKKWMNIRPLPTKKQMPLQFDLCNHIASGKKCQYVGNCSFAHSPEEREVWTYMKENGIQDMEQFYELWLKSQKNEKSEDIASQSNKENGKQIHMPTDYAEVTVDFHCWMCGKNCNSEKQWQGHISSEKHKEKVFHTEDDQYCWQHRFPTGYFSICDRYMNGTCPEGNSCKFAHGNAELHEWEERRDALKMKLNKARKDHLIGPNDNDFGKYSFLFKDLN
UniProt O43347: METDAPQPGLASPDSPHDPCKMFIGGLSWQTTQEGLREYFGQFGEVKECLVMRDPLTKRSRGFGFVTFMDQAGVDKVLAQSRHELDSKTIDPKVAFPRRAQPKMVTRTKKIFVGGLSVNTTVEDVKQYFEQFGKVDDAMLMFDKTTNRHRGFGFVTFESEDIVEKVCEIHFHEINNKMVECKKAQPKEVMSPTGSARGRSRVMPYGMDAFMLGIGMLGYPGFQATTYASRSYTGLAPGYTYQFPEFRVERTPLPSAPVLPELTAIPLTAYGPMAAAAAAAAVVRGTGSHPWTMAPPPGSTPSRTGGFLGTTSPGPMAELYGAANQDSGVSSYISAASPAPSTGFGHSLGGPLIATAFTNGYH
UniProt P46063: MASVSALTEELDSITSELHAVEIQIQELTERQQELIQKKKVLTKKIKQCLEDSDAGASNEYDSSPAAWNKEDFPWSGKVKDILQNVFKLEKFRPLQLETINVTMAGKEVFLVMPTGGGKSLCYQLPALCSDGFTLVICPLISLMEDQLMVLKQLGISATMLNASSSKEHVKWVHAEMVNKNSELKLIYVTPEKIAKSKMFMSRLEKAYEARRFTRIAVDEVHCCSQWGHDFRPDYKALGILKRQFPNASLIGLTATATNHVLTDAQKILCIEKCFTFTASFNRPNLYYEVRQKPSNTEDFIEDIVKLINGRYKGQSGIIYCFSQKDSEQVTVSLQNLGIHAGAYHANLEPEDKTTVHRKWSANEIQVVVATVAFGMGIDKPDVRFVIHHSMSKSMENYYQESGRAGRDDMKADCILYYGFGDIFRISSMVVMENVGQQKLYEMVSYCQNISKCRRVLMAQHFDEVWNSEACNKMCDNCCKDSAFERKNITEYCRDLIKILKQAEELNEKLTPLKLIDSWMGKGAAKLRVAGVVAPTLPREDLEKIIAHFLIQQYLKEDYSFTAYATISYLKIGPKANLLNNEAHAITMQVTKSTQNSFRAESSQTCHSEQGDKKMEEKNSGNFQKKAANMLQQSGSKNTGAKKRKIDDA

How the values were obtained:
Assay in all cases: affinity purification with mass spectrometry; GFP pulldown with GFP Tag Immunomagnetic Beads from lysates of HEK-293 Flp-In T-REx cells expressing EGFP, EGFP-MAB21L1 or mutant EGFP-MAB21L1 after 12 hrs of 1 μg/ml tetracycline; three biological replicates; MaxQuant
[1] = target: T1, GFP-tagged MAB21L1 Arg51Gln (human) (UniProt Q13394)
T1 sequence: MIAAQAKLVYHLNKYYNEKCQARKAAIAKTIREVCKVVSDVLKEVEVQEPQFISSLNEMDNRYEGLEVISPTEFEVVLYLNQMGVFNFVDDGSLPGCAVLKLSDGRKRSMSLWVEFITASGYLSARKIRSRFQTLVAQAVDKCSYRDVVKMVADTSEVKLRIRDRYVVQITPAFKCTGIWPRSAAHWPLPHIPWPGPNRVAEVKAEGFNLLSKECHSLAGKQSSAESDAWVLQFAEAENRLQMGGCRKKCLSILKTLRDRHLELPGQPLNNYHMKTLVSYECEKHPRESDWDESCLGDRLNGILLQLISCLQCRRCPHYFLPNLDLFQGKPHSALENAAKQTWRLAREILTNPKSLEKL

[2] = target: T2, GFP-tagged MAB21L1 Arg51Leu (human) (UniProt Q13394)
T2 sequence: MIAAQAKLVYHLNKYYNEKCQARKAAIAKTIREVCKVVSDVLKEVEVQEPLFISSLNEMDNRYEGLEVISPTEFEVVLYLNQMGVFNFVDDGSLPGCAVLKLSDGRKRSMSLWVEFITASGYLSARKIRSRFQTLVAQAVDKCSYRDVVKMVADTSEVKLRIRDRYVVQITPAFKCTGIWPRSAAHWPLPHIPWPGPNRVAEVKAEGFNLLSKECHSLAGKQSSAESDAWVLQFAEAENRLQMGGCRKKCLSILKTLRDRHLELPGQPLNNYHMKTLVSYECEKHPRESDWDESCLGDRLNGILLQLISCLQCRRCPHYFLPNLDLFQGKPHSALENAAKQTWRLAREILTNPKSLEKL

[3] = target: T3, GFP-tagged wild-type MAB21L1 (human) (UniProt Q13394)
T3 sequence: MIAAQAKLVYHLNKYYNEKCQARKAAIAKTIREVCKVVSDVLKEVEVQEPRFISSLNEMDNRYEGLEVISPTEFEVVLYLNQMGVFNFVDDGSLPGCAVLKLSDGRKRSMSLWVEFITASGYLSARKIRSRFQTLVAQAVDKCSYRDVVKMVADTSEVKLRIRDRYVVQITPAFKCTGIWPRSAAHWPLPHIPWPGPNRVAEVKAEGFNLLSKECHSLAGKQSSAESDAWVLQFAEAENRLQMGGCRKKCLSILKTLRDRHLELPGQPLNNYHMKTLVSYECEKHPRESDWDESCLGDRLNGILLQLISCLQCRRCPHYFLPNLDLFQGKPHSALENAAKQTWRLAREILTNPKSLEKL

[4] = target: T1, GFP-tagged MAB21L1 Arg51Gln (human); remark: listed apart in the source
[5] = target: T2, GFP-tagged MAB21L1 Arg51Leu (human); remark: listed apart in the source
[6] = target: T3, GFP-tagged wild-type MAB21L1 (human); remark: listed apart in the source

## SNTB2 (from UniProt Q13425 1-540)
[1]
  binding: binds
[2]
  binding: binds
[3]
  binding: binds

## ZNF460 (from UniProt Q14592 1-562)
[1]
  binding: binds
[2]
  binding: binds
[3]
  binding: binds

## MRFAP1 (from UniProt Q9Y605 1-127)
[1]
  binding: binds
[2]
  binding: binds
[3]
  binding: binds

## CDC7 (from UniProt O00311 1-574)
[1]
  binding: binds
[2]
  binding: binds
[3]
  binding: binds

## ATXN3 (from UniProt P54252 1-361)
[1]
  binding: binds
[2]
  binding: binds
[3]
  binding: binds

## MARK3 (from UniProt P27448 1-753)
[1]
  binding: binds
[2]
  binding: binds
[3]
  binding: binds

## DIAPH1 (from UniProt O60610 1-1272)
[1]
  binding: binds
[2]
  binding: binds
[3]
  binding: binds

## DNAJB1 (from UniProt P25685 1-340)
[1]
  binding: binds
[2]
  binding: binds
[3]
  binding: binds

## GALNT2 (from UniProt Q10471 1-571)
[1]
  binding: binds
[2]
  binding: binds
[3]
  binding: no binding

## GTF2F2 (from UniProt P13984 1-249)
[1]
  binding: binds
[2]
  binding: binds
[3]
  binding: binds

## SARS2 (from UniProt Q9NP81 35-518)
[1]
  binding: binds
[2]
  binding: binds
[3]
  binding: binds

## GPS1 (from UniProt Q13098 1-491)
[1]
  binding: binds
[2]
  binding: binds
[3]
  binding: binds

## NCBP1 (from UniProt Q09161 1-790)
[1]
  binding: binds
[2]
  binding: binds
[3]
  binding: binds

## IPO8 (from UniProt O15397 1-1037)
[1]
  binding: binds
[2]
  binding: binds
[3]
  binding: binds

## ZC3H7A (from UniProt Q8IWR0 1-971)
[1]
  binding: binds
[2]
  binding: binds
[3]
  binding: binds

## Musashi-1 (from UniProt O43347 1-362)
[1]
  binding: binds
[2]
  binding: binds
[3]
  binding: binds

## RECQL (from UniProt P46063 1-649)
[1]
  binding: binds
[2]
  binding: binds
[3]
  binding: binds

## INTS9 (from UniProt Q9NV88 1-658)
[1]
  binding: binds
[2]
  binding: binds
[3]
  binding: binds

B1: RNF219 (protein, UniProt Q5W0B1 1-726)
chain: MAQTVQNVTLSLTLPITCHICLGKVRQPVICINNHVFCSICIDLWLKNNSQCPACRVPITPENPCKEIIGGTSESEPMLSHTVRKHLRKTRLELLHKEYEDEIDCLQKEVEELKSKNLSLESQIKTILDPLTLVQGNQNEDKHLVTDNPSKINPETVAEWKKKLRTANEIYEKVKDDVDKLKEANKKLKLENGGLVRENLRLKAEVDNRSPQKFGRFAVAALQSKVEQYERETNRLKKALERSDKYIEELESQVAQLKNSSEEKEAMNSICQTALSADGKGSKGSEEDVVSKNQGDSARKQPGSSTSSSSHLAKPSSSRLCDTSSARQESTSKADLNCSKNKDLYQEQVEVMLDVTDTSMDTYLEREWGNKPSDCVPYKDEELYDLPAPCTPLSLSCLQLSTPENRESSVVQAGGSKKHSNHLRKLVFDDFCDSSNVSNKDSSEDDISRSENEKKSECFSSPKTGFWDCCSTSYAQNLDFESSEGNTIANSVGEISSKLSEKSGLCLSKRLNSIRSFEMNRTRTSSEASMDAAYLDKISELDSMMSESDNSKSPCNNGFKSLDLDGLSKSSQGSEFLEEPDKLEEKTELNLSKGSLTNDQLENGSEWKPTSFFLLSPSDQEMNEDFSLHSSSCPVTNEIKPPSCLFQTEFSQGILLSSSHRLFEDQRFGSSLFKMSSEMHSLHNHLQSPWSTSFVPEKRNKNVNQSTKRKIQSSLSSASPSKATKS
[4]
  binding: binds
[5]
  binding: binds
[6]
  binding: binds
